Reference: patent publication EP0326579B1, “IMPROVEMENT OF THE BIOCOMPATIBILITY OF SOLID SURFACES” (BIO-METRIC SYSTEMS, INC., priority 1986, dated 1988)

Assay: Radiolabeled [3H] biocompatible agents photocoupled to plastic surfaces, counted by liquid scintillation spectrometry
Description: 1. Plastic Surfaces. Various cell factors were coupled to polymeric surfaces tested in vitro to determine the effect of these factors upon cell attachment and overgrowth. The polymeric surfaces included polyvinyl chloride (PVC), polyethylene (PE), polypropylene (PP) and polytetrafluoroethylene (PTFE) GORE-TEX (6mm reinforced expanded PTFE, a trademarked product of W. L. Gore and Associates, Inc.). Commercial tubing tested included polyester (Dacron, D, 6mm straight knitted dacron velour, a trademarked product of Dupont), silicone elastomer, (Silastic ^R, S, 0.03 I.D., tubing, a trademarked product of Dow Corning) and polyurethane. Polystyrene plates were used as controls. 2. Preparation of the Chemical Linking Moiety. The chemical linking moiety used in these examples were the N-oxysuccinimide (NOS) esters of 4-azido-2-nitrophenyl epsilon amino caproic acid (ANP-EACA), 4-azido-2-nitro-phenyl amino undecanoic acid (ANP-AUDA) and benzoylbenzoic acid (BBA). ANP-EAC-NOS and ANP-AUD-NOS were prepared by the method described in P. Guire, D. Fliger and J. Hodgson, "Photochemical Coupling of Enzymes to Mammalian Cells", Pharmacological Research Communications, Vol. 9, pp 131-141 (1977), incorporated herein by reference. Briefly, fluoro-2-nitro-4-azido benzene was reacted with either epsilon amino caproic acid or amino undecanoic acid to substitute the relatively poorly reactive fluoride with an amino alkyl carboxy group. The carboxy group was then esterified, by carbodiimide activation with N-hydroxy succinimide to yield the N-oxysuccinimide carboxylic ester. The NOS ester of benzoylbenzoic acid was prepared by esterifying the carboxy group by carbodiimide activation with N-hydroxy succinimide. When ANP-EAC-NOS or ANP-AUD-NOS is the chemical linking moiety used, the ANP group is the photochemically reactive group represented by the letter "A" in the A-X-B general formula discussed above. The NOS group is the different reactive group represented by the letter "B" in the formula. The EAC or AUD group acts as the spacer between the two reactive groups and is represented by the X in the general formula. When BBA-NOS is the chemical linking moiety, the benzoylbenzoic group is the photochemically reactive group represented by the "A" in the general formula and the NOS group is the different reactive group represented by the letter "B". The group represented by X is the carbon connecting the two reactive groups. 3. Covalent Bonding of Growth Factors to the Chemical Linking Moieties. The biocompatible agents fibronectin, laminin, collagen, endothelial growth factor, and human serum albumin were tested for their abilities to promote endothelial cell attachment and overgrowth on synthetic biomaterials. These agents were coupled to the N-oxysuccinimide (NOS) esters of 4-azido-2-nitrophenyl epsilon amino caproic acid (ANP-EACA), 4-azido-2-nitrophenyl-undecanoic amino acid (ANP-AUDA) or benzoylbenzoic acid (BBA) as follows. As used herein "photolabeled" refers to a biocompatible agent that has been coupled to a chemical linking moiety by the different reactive group and that has a photochemically reactive group. • A. Covalent Binding of Fibronectin and Laminin to the Linking Moiety. Human fibronectin (University of Wisconsin Medical School) and mouse laminin (obtained from Bethesda Research Lab.) were separately dissolved at 1 mg/ml concentrations in 0.1M borate, pH 9.0. A solution of ANP-EAC-NOS in dry dimethylformamide ("DMF"), ANP-AUD-NOS in dry DMF, or BBA-NOS in dry dioxane was slowly added to the fibronectin or laminin solution in equamolar amounts to the concentration of protein epsilon amino groups (lysine residues) by syringe drive at 4°C in the dark over 16 hours. Then the mixture was stirred 4 hours in the cold. The fibronectin or laminin solution was centrifuged to remove insoluble material then applied to a Sephadex G-75 column to remove uncoupled photoreagent. […]

Substance	% Coupling Efficiency (Solid surface PVC)	Ng Growth Factor Photocoupled/cm² (Solid surface PVC)	% Coupling Efficiency (Solid surface Polyurethane)	Ng Growth Factor Photocoupled/cm² (Solid surface Polyurethane)
ANP-EAC-COL: Human placenta Type IV collagen coupled to ANP-EAC-NOS (photolabeled collagen)	14.0%	374 Ng/cm²	81.26%	2173.6 Ng/cm²
BBA-COL: Human placenta Type IV collagen coupled to the NOS ester of benzoylbenzoic acid	17.9%	197.56 Ng/cm²	83.3%	920.3 Ng/cm²
